# Test results from the supplement of paper PMC8960247.
# Tested on: 621-102 (TSC2-deficient)
# Test: relative viability vs DMSO (fraction); higher = less cytotoxic
# Details: serum: 0.1% FBS, 72 h
SMILES,relative viability (0.0128 nM),relative viability (0.064 nM),relative viability (0.32 nM),relative viability (1.6 nM),relative viability (8 nM),relative viability (40 nM),relative viability (200 nM),relative viability (1000 nM),relative viability (5000 nM)
CN(CCOc1ccc(CC2SC(=O)NC2=O)cc1)c1ccccn1 (stereo not drawn) [Rosiglitazone],0.74,0.835,0.803,0.78,0.796,0.747,0.81,0.742,0.614
CCCNC(=O)Nc1ccc(Oc2ncnc3cc(OC)c(OC)cc23)cc1Cl [KRN 633],0.825,0.867,0.845,0.798,0.914,0.878,0.772,0.726,0.313
CCC[C@H](Nc1nc(-c2ccc(NC(=O)NCC)c(OC)c2)ncc1C)c1cccnc1 [CYT997],0.888,0.835,0.849,0.798,0.809,0.472,0.0393,0.0172,0.0166
CNC(=C[N+](=O)[O-])NCCSCc1csc(CN(C)C)n1 [Nizatidine],0.859,0.896,0.847,0.87,0.862,0.726,0.798,0.758,0.615
CN1CCc2c(c3ccccc3n2Cc2ccc(C(=O)NO)cc2)C1 [Tubastatin A hydrochloride],0.862,0.835,0.752,0.773,0.725,0.822,0.646,0.677,0.668
Cc1ccc(NC(=O)c2ccc(CN3CCN(C)CC3)cc2)cc1Nc1nccc(-c2cccnc2)n1 [Imatinib Mesylate (STI571)],0.865,0.819,0.955,0.428,0.941,0.27,0.743,0.617,0.0615
CCCc1nc(C)c2c(=O)nc(-c3cc(S(=O)(=O)N4CCN(CC)CC4)ccc3OCC)[nH]n12 [Vardenafil HCl Trihydrate],0.907,0.796,0.791,0.844,0.776,0.758,0.69,0.79,0.774
CCOc1ccn(-c2ccc(F)cc2)c(=O)c1C(=O)Nc1ccc(Oc2ccnc(N)c2Cl)c(F)c1,1,0.995,0.964,0.918,0.65,0.436,0.783,0.937,0.18
Cc1ccc(NC(=O)c2ccc(CN3CCN(C)CC3)cc2)cc1Nc1nccc(-c2cccnc2)n1 [Imatinib (STI571)],0.973,0.925,0.951,0.92,0.875,0.821,0.777,0.67,0.325
CN1CCC(CNc2ccc3ncc(-c4cccc(OC(F)(F)F)c4)n3n2)CC1 [SGI-1776],0.871,0.966,0.907,0.809,0.736,0.782,0.777,0.16,0.029
CCN1CCN(C(=O)Cc2ccc(Nc3ncc(F)c(Nc4ccc(C(=O)Nc5ccccc5Cl)cc4)n3)cc2)CC1 [Aurora A Inhibitor I],0.785,0.758,0.828,0.898,0.738,0.662,0.379,0.0643,0.00866
CNCCCC12CCC(c3ccccc31)c1ccccc12 [Maprotiline HCl],0.901,0.912,0.948,0.965,0.895,0.816,0.79,0.806,0.642
CC(C)(C)c1cc(C(C)(C)C)c(NC(=O)c2c[nH]c3ccccc3c2=O)cc1O [VX-770],0.889,0.883,0.855,0.838,0.776,0.735,0.74,0.729,0.544
Cc1ccc(C(=O)N(CCCN)[C@@H](c2oc3cc(Cl)ccc3c(=O)c2Cc2ccccc2)C(C)C)cc1,1.67,1.77,1.77,1.4,0.829,0.933,0.474,1.15,0.709
CNC(=O)CN1CCC(Oc2cc3c(Nc4cccc(Cl)c4F)ncnc3cc2OC)CC1 [AZD8931],0.575,0.598,0.69,0.598,0.555,0.487,0.422,0.459,0.472
COc1ccc(-c2nc3cc(C4=NNC(=O)CC4C)ccc3[nH]2)cc1 (stereo not drawn) [Pimobendan],0.926,0.882,0.967,0.887,0.82,0.825,0.764,0.744,0.738
CC(C)CC(=O)Nc1n[nH]c2c1CN(C(=O)C1CCN(C)CC1)C2(C)C,0.813,0.742,0.817,0.805,0.764,0.716,0.443,0.0793,0.012

# Two neighbouring records from above, for reference:
SMILES,relative viability (0.0128 nM),relative viability (0.064 nM),relative viability (0.32 nM),relative viability (1.6 nM),relative viability (8 nM),relative viability (40 nM),relative viability (200 nM),relative viability (1000 nM),relative viability (5000 nM)
CCOc1ccn(-c2ccc(F)cc2)c(=O)c1C(=O)Nc1ccc(Oc2ccnc(N)c2Cl)c(F)c1,1,0.995,0.964,0.918,0.65,0.436,0.783,0.937,0.18
Cc1ccc(NC(=O)c2ccc(CN3CCN(C)CC3)cc2)cc1Nc1nccc(-c2cccnc2)n1 [Imatinib (STI571)],0.973,0.925,0.951,0.92,0.875,0.821,0.777,0.67,0.325

# Counter-ions that a name gives are not always drawn. The data scatter; read single values as rough.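 The cells are immortalized human renal angiomyolipoma cells carrying an empty vector, so TSC2 stays lost. Viability was read by a luminescent ATP assay and normalized to vehicle-treated wells on each plate, in low-serum medium where TSC2-rescued cells do not grow.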
